Results reported in the supplement of paper PMC10849652.
The other results are listed elsewhere or left out. Residues, ends and D or L forms follow the SMILES beside them. *: point of attachment. Cbz = O=C(OCc1ccccc1)*

Sequences of proteins named here, by UniProt entry; tags and fusion partners are left off. A change or cut given only in a name is not applied to a line headed by its entry.
UniProt Q8IUG5: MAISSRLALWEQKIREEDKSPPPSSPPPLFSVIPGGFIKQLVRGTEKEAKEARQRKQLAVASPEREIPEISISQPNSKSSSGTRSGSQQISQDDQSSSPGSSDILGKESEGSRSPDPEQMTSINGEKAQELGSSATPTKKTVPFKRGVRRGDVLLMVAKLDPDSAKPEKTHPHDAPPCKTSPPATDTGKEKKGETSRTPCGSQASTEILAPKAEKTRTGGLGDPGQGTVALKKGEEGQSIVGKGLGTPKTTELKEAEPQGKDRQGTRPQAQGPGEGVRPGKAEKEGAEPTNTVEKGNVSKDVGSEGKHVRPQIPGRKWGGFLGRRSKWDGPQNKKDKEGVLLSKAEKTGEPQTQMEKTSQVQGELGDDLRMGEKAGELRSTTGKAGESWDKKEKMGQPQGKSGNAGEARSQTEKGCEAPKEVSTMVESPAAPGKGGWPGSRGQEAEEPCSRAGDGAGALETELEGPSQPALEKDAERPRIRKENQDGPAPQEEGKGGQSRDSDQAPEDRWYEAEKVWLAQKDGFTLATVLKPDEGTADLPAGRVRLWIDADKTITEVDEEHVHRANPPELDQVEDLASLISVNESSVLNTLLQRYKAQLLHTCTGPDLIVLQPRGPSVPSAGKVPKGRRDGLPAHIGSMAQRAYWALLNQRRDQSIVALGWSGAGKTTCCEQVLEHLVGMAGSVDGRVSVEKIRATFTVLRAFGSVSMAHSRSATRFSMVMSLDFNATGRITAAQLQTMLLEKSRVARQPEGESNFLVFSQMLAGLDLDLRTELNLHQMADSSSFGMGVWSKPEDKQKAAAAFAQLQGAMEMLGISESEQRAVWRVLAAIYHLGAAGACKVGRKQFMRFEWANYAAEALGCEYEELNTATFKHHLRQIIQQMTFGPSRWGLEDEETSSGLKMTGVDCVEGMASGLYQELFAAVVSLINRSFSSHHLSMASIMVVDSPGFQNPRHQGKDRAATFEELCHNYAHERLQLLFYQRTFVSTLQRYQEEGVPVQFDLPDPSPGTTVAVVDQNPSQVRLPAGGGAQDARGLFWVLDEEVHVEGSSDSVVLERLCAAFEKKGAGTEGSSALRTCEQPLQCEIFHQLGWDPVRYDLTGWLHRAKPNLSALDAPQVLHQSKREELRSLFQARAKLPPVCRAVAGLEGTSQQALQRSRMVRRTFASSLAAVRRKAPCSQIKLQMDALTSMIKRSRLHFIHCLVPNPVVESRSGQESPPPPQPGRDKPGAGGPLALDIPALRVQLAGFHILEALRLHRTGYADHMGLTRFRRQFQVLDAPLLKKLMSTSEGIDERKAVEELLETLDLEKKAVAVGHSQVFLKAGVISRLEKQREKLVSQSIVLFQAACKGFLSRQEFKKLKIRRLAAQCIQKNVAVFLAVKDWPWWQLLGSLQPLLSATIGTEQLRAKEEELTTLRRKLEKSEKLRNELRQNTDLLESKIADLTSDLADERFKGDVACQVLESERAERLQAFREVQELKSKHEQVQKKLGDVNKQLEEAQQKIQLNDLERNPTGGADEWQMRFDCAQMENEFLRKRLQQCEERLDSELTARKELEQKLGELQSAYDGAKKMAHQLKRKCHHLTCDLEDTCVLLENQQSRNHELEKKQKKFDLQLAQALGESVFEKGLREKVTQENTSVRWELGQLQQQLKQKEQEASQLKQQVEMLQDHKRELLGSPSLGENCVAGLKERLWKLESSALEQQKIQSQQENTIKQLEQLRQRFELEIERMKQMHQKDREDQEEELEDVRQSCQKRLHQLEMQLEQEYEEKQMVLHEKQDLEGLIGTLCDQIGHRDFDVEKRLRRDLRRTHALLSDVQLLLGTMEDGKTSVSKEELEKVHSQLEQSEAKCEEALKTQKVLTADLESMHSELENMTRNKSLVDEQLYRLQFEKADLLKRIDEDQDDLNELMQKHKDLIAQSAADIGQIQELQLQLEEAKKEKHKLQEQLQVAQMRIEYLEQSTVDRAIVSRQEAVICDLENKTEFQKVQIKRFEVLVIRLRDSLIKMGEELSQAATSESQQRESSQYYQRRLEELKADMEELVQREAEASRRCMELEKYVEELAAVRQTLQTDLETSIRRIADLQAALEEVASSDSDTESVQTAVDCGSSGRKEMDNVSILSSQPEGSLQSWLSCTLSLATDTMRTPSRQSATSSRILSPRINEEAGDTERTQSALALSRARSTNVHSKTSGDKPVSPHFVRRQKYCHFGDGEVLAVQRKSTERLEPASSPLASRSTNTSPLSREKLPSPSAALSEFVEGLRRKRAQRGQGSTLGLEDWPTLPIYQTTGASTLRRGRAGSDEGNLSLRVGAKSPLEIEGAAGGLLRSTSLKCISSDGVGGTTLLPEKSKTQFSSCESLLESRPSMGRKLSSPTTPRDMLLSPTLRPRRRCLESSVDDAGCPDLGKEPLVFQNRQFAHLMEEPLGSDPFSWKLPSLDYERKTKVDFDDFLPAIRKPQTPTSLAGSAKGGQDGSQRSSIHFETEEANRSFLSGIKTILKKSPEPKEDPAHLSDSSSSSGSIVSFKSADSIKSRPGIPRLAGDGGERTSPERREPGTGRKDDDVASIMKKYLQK
UniProt Q96DP5: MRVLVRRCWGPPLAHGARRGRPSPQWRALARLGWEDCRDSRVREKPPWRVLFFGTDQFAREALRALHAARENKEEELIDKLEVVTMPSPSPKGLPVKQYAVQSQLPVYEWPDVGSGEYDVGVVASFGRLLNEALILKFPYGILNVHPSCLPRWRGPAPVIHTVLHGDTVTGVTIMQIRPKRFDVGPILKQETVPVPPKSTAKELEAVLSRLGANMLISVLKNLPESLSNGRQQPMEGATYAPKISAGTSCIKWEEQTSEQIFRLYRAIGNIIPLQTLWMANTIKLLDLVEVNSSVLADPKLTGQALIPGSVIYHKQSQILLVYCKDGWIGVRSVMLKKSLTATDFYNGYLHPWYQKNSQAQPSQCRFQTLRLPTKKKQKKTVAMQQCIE
UniProt Q9NXD2: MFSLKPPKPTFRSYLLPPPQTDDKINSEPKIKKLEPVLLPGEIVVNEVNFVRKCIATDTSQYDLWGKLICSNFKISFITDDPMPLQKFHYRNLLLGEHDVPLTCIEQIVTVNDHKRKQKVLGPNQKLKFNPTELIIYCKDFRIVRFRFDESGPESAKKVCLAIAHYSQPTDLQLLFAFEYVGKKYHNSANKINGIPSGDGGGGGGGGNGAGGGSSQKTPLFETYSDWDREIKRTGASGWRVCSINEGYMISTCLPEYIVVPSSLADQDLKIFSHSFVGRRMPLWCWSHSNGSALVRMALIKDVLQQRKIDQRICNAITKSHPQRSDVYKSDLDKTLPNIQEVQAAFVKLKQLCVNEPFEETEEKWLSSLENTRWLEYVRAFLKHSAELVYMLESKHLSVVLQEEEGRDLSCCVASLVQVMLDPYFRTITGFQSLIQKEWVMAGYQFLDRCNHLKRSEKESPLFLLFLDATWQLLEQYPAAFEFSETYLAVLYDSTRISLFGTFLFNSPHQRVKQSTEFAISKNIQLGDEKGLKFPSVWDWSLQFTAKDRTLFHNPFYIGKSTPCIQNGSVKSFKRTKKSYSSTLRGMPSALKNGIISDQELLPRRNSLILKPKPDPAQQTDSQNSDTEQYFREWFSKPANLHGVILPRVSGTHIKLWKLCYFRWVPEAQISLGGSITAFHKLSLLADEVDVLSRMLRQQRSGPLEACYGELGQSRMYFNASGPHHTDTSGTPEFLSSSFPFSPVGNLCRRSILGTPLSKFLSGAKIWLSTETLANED
UniProt P46199: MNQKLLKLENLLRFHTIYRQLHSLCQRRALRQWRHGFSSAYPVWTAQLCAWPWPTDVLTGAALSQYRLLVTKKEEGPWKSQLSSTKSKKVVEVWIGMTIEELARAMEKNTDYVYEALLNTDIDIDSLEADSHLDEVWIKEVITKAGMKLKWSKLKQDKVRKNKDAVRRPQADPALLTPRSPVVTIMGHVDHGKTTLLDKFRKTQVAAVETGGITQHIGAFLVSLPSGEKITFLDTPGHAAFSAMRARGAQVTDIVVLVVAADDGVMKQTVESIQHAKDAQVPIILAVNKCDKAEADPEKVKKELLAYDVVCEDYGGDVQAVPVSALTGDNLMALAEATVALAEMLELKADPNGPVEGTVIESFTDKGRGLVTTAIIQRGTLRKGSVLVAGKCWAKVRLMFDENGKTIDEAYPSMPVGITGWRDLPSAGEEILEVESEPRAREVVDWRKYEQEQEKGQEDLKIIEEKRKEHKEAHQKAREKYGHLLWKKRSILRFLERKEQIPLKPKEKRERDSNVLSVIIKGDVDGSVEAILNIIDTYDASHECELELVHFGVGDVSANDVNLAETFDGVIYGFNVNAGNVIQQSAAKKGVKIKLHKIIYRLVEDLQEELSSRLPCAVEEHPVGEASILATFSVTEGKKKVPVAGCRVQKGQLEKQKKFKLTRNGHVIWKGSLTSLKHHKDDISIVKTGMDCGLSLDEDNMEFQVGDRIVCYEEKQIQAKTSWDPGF
UniProt G3V1V0: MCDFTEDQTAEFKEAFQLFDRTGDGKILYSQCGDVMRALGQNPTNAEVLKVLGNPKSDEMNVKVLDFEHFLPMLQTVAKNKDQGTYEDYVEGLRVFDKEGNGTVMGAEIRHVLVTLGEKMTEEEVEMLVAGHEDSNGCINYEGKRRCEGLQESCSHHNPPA
UniProt O43795: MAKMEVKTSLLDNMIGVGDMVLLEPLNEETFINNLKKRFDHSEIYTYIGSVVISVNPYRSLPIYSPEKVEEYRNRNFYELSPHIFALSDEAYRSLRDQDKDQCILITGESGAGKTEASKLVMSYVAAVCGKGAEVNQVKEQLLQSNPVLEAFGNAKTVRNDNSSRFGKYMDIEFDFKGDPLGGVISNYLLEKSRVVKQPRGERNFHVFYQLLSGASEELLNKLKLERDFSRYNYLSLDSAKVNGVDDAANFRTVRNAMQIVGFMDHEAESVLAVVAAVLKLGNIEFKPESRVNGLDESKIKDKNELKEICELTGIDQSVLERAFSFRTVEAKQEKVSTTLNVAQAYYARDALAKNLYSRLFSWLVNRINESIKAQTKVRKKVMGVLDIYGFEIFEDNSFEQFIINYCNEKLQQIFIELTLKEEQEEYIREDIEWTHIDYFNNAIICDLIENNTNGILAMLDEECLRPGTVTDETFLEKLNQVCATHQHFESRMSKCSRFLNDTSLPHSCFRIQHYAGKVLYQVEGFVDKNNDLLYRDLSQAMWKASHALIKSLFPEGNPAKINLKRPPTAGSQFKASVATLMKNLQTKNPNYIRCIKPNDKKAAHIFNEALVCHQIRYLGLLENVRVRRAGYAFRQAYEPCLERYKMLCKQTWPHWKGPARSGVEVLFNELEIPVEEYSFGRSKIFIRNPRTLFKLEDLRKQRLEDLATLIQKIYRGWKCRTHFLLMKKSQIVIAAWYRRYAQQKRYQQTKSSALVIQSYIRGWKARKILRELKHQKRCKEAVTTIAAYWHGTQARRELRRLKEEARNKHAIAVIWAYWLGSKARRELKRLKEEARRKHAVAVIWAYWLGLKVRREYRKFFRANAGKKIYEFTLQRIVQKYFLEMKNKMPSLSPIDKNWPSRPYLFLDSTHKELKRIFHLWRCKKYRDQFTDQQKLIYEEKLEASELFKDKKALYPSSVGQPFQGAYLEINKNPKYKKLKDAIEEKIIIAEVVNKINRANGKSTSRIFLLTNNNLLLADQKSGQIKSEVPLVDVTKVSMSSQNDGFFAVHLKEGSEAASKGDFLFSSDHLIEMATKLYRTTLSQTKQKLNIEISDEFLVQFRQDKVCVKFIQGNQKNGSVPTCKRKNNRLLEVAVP
UniProt P00414, whole entry, looked up: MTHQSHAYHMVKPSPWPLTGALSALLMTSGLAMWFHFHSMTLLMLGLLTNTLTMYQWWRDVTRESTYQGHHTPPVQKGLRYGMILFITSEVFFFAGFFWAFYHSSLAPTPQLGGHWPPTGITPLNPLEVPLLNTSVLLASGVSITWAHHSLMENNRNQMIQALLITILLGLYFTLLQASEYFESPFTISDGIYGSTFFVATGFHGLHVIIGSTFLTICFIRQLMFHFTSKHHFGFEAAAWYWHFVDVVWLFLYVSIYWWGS

Experiments:
Assay in all cases: log2 fold change, soluble protein after heating vs DMSO (PISA); higher = thermal stabilisation; K562 cells, 10 uM, 30 min; active = over 0.2 and 3.5 SD of the protein, either way, in both replicates (recomputed)
ibrutinib = compound: C=CC(=O)N1CCC[C@@H](n2nc(-c3ccc(Oc4ccccc4)cc3)c3c(N)ncnc32)C1 [ibrutinib]
Procedure, shortened: (§1)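 K562 cells (2×10^6 cells/mL) were treated with 10 μM compound for 30 min, and aliquots were heated for 3 min over 48°C-58°C. Pooled aliquots were extracted in PBS with 0.5% NP-40 at 4°C, and the supernatant after 21,000xg for 90 min was measured by TMTpro 16plex LC-MS/MS with channel sums equalised. Reported thermal stability, relative to control samples and from duplicates, is a log2 fold change.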

[1] = compound: CC(=O)c1cnc2ccc(-c3cc(Cl)c(O)c(Cl)c3)nc2c1N[C@H]1CC[C@H](CN(C)C)CC1
Procedure, shortened: as §1

ralimetinib = compound: CC(C)(C)Cn1c(N)nc2ccc(-c3[nH]c(C(C)(C)C)nc3-c3ccc(F)cc3)nc21 [ralimetinib]
Procedure, shortened: as §1

[2] = compound: CC(C)(O)CC(=O)NCCn1ccc2ncnc(Nc3ccc(Oc4cccc(C(F)(F)F)c4)c(Cl)c3)c21
Procedure, shortened: as §1

[3] = compound: CC(C)C1=C2N=C(C=C(N2N=C1)NCC3=CC=CC=C3)NCCCCCCN
Procedure, shortened: as §1

[4] = compound: CC(C)C[C@@H](C=O)NC(=O)[C@H](CC(C)C)NC(=O)[C@H](CC(C)C)NC(=O)OCc1ccccc1
Procedure, shortened: as §1

[5] = compound: CC1=C(C(CC(=O)N1)C2=CC=C(C=C2)C(F)(F)F)C(=O)NC3=C(C=C4C(=C3)C=NN4)F
Procedure, shortened: as §1

[6] = compound: CC1=C(C2=C(C=C1)C(=O)C3=CC=CC=C3N2CCCN)C
Procedure, shortened: as §1

[7] = compound: CC1=C(C=C(C=C1)NC(=O)C2=CC(=CC=C2)C(C)(C)C#N)NC3=CC4=C(C=C3)N=CN(C4=O)C
Procedure, shortened: as §1

[8] = compound: CC1=C(C=C(C=C1)NC(=O)C2=CC(=CC=C2)N(C)C)NC(=O)C3=CC=C(C=C3)O
Procedure, shortened: as §1

Nexturastat A = compound: CCCCN(Cc1ccc(C(=O)NO)cc1)C(=O)Nc1ccccc1 [Nexturastat A]
Procedure, shortened: as §1

givinostat = compound: CCN(CC)Cc1ccc2cc(COC(=O)Nc3ccc(C(=O)NO)cc3)ccc2c1 [givinostat]
Procedure, shortened: as §1

barasertib = compound: CCN(CCCOc1ccc2c(Nc3cc(CC(=O)Nc4cccc(F)c4)[nH]n3)ncnc2c1)CCOP(=O)(O)O [barasertib]
Procedure, shortened: as §1

[9] = compound: CC1=CC=C(C=C1)SC2=C3C=C(SC3=CN=C2)C(=O)N
Procedure, shortened: as §1

vemurafenib = compound: CCCS(=O)(=O)Nc1ccc(F)c(C(=O)c2c[nH]c3ncc(-c4ccc(Cl)cc4)cc23)c1F [vemurafenib]
Procedure, shortened: as §1

[10] = compound: CCCS(=O)(=O)Nc1ccc(F)c(C(=O)c2c[nH]c3ncc(Cl)cc23)c1F
Procedure, shortened: as §1

[11] = compound: CCCc1cc(C)[nH]c(=O)c1CNC(=O)c1cc(-c2ccnc(N3CCN(C)CC3)c2)cc2c1cnn2C(C)C
Procedure, shortened: as §1

IRAK-1-4 Inhibitor I = compound: C1COCCN1CCN2C3=CC=CC=C3N=C2NC(=O)C4=CC(=CC=C4)[N+](=O)[O-] [IRAK-1-4 Inhibitor I]
Procedure, shortened: as §1

pinometostat = compound: CC(C)N(C[C@H]1O[C@@H](n2cnc3c(N)ncnc32)[C@H](O)[C@@H]1O)[C@H]1C[C@@H](CCc2nc3cc(C(C)(C)C)ccc3[nH]2)C1 [pinometostat]
Procedure, shortened: as §1

[12] = compound: CC1=NC(=CC=C1)C2=C(N=C(N2)C(C)(C)C)C3=CC4=NC=CN=C4C=C3
Procedure, shortened: as §1

Measured: log2 fold change

MYO18B isoform 3 (UniProt Q8IUG5)
inactive: ibrutinib -0.107 | [1] -0.08 | ralimetinib 0.044 | [2] 0.127 | [3] -0.414 | [4] 0.402 | [5] 0.052 | [6] 0.002 | [7] -0.187 | [8] 0.014 | Nexturastat A -0.222 | givinostat 0.113 | barasertib 0.117

MTFMT (UniProt Q96DP5)
inactive: [2] 0.253 | [6] 0.126 | [7] -0.029 | [9] 0.057 | Nexturastat A -0.217 | vemurafenib 0.012 | [10] 0.019

MYH6 (UniProt P13533)
inactive: [2] -0.02 | [3] 0.066 | [5] -0.026 | [9] -0.028 | Nexturastat A 0.385 | [10] 0.009 | [11] 0.085 | givinostat 0.198

MTMR10 (UniProt Q9NXD2)
inactive: IRAK-1-4 Inhibitor I -0.022 | ibrutinib -0.116 | [2] -0.108 | pinometostat -0.048 | [5] 0.067 | [7] 0.143 | [9] -0.017 | [12] 0.104 | Nexturastat A -0.358 | [10] -0.117 | [11] -0.078 | barasertib -0.043

MTDH (UniProt E5RJU9)
inactive: IRAK-1-4 Inhibitor I -0.053 | pinometostat 0.215 | [12] 0.048

MTIF2 (UniProt P46199)
inactive: [2] 0.154 | [7] -0.178 | Nexturastat A 0.091

MYL6 (UniProt G3V1V0)
inactive: ibrutinib -0.079 | [1] 0.094 | ralimetinib -0.127 | [3] 0.067 | [4] 0.06 | [6] 0.034 | [7] -0.267 | [8] 0.003 | vemurafenib 0.008 | [11] -0.007 | givinostat -0.021 | barasertib -0.059

MRPS36 (UniProt D6R941)
inactive: [2] 0.124 | [5] 0.094 | [7] -0.68 | Nexturastat A -0.043

MYO1B (UniProt O43795)
inactive: vemurafenib 0.156

MYH3 (UniProt P11055)
inactive: ibrutinib -0.009 | [3] -0.095 | [5] 0.017 | [6] -0.044 | givinostat 0.03 | barasertib -0.019

2 consecutive entries from above, for reference:
MYO1B (UniProt O43795)
inactive: vemurafenib 0.156

MYH3 (UniProt P11055)
inactive: ibrutinib -0.009 | [3] -0.095 | [5] 0.017 | [6] -0.044 | givinostat 0.03 | barasertib -0.019

Additional entries:

MT-CO3 (UniProt P00414)
inactive: IRAK-1-4 Inhibitor I 0.048 | [1] -0.158 | ralimetinib -0.018 | [4] -0.042 | pinometostat 0.035 | [6] 0.234 | [7] -0.075 | [8] 0.026 | [9] 0.021 | [12] 0.12 | vemurafenib 0.175 | [10] 0.216 | [11] -0.386
